The list does not hold the whole screen: it gathers tests that were run many times, whatever their T/C, doses with no T/C, and many T/C values between a quarter and a half above the control. Further doses and runs are listed elsewhere. T/C: endpoint of the treated group in % of that of the vehicle group. Some entries give survivors of the animals treated and no T/C: the source files T/C as zero there, which appears to mark a toxic dose or a test without result, not a measured value. Some survivor counts are full or nearly so, which does not show that the dose was tolerated: survival well below the control is almost never listed, so the zero probably covers shortened survival too. Counts of survivors are from the toxicity check (mostly the fifth day) where no day follows; animals may have died later. Schedule codes are those of the source, taken here to give the interval after Q, in days (D) or hours (H), and the number of doses after X. Signs of the kind (2×) count equal records among those shown. Some structures stand for samples that the source files as different forms (salt, stereo form or complex); doses refer to the form tested. Some entries hold several experiments; the results are listed from low to high. Where survival is the endpoint, this PubChem deposit counts one and a half times the control or more as active, and values a quarter to a half above the control carry no call in these data; other NCI protocols may use other cut-offs.
Test system: P388 leukemia ip, CD2F1 mice, survival T/C
Test: NCI In Vivo Anticancer Drug Screen. Data for tumor model P388 Leukemia (intraperitoneal) in CD2F1 (CDF1) mice
Conditions: T/C endpoint: median survival time, higher T/C = longer survival
[1] = dose: 50.0 mg/kg/injection, schedule: Q01DX005 (ip), vehicle: saline with Tween-80
[2] = dose: 100.0 mg/kg/injection, schedule: Q01DX005 (ip), vehicle: saline with Tween-80
[3] = dose: 200.0 mg/kg/injection, schedule: Q01DX005 (ip), vehicle: saline
[4] = dose: 60.0 mg/kg/injection, schedule: Q01DX005 (ip), vehicle: saline with Tween-80
[5] = dose: 120.0 mg/kg/injection, schedule: Q01DX005 (ip), vehicle: saline with Tween-80
[6] = dose: 240.0 mg/kg/injection, schedule: Q01DX005 (ip), vehicle: saline with Tween-80
[7] = dose: 200.0 mg/kg/injection, schedule: Q01DX001 (ip), vehicle: Klucel (hydroxypropylcellulose) (HPC)
[8] = dose: 200.0 mg/kg/injection, schedule: Q01DX005 (ip), vehicle: Klucel (hydroxypropylcellulose) (HPC)
[9] = dose: 50.0 mg/kg/injection, schedule: Q01DX005 (ip), vehicle: Klucel (hydroxypropylcellulose) (HPC)
[10] = dose: 100.0 mg/kg/injection, schedule: Q01DX005 (ip), vehicle: Klucel (hydroxypropylcellulose) (HPC)
[11] = dose: 200.0 mg/kg/injection, schedule: Q01DX005 (ip), vehicle: saline with Tween-80
[12] = dose: 400.0 mg/kg/injection, schedule: Q01DX005 (ip), vehicle: Klucel (hydroxypropylcellulose) (HPC)

SMILES: C[C@]12CC[C@H](OC(=O)COc3ccc(N(CCCl)CCCl)cc3)C[C@@H]1CC[C@@H]1[C@@H]2CC[C@]2(C)NC(=O)CC[C@@H]12
- T/C (dose: 4.0 mg/kg/injection, schedule: Q01DX009 (ip), vehicle: saline with Tween-80): 139, 140, 149 % of control
- survivor count (dose: 64.0 mg/kg/injection, schedule: Q01DX009 (ip), vehicle: saline with Tween-80): 6 of 6

SMILES: NC(=S)c1ncn(C2OC(COC=O)C(OC=O)C2OC=O)c1NC=O (centres undefined)
- T/C [1]: 133 % of control
- T/C [2]: 136 % of control

SMILES: Oc1ccccc1C=NCCCN=Cc1ccccc1O
- survivor count (dose: 100.0 mg/kg/injection, schedule: Q01DX009 (ip), vehicle: saline with Tween-80): 6 of 6

SMILES: O=C1C=C2CCC3=CC(=O)C(=CC3=O)CCC(=C1)C2=O
- survivor count (dose: 400.0 mg/kg/injection, schedule: Q04DX002 (ip), vehicle: Klucel (hydroxypropylcellulose) (HPC)): 0 of 5

SMILES: Cc1ccc(/C=C/C(=O)C(C)CN(C)C)cc1C (centres undefined)
- survivor count [3]: 2 of 6

SMILES: COc1cccc2c1C(=O)c1c(O)c3c(c(O)c1C2=O)C[C@@](O)(/C(C)=N/NC(N)=S)C[C@@H]3OC1CC(N)C(O)C(C)O1 (some centres undefined)
- T/C (dose: 100.0 mg/kg/injection, schedule: Q04DX003 (ip), vehicle: water): 129 % of control

SMILES: C1=C[N-]c2c3c(ccc2=C1)=CC=C[N-]3.C1=C[N-]c2c3c(ccc2=C1)=CC=C[N-]3.C1=C[N-]c2c3c(ccc2=C1)=CC=C[N-]3.[Co+3].[O-][Cl+3]([O-])([O-])O
- survivor count [4]: 3 of 6
- survivor count [5]: 0 of 6
- survivor count [6]: 0 of 6

SMILES: CCn1c(Cl)c(/C=N/NS(=O)(=O)c2ccc(C)cc2)c2cccc(/C=N\NS(=O)(=O)c3ccc(C)cc3)c21
- survivor count [7]: 6 of 6

SMILES: CC1=CC(Cc2ccccc2)N(C)C(C(N)=O)C1 (centres undefined)
- survivor count [8]: 0 of 6

SMILES: CN1CCCCC1Cc1ccccc1 (centres undefined)
- survivor count (dose: 50.0 mg/kg/injection, schedule: Q01DX005 (ip), vehicle: saline): 1 of 6
- survivor count (dose: 100.0 mg/kg/injection, schedule: Q01DX005 (ip), vehicle: saline): 0 of 6
- survivor count [3]: 0 of 6

SMILES: CCN=NNc1ccc(C(C)=O)cc1
- T/C (dose: 100.0 mg/kg/injection, schedule: Q01DX009 (ip), vehicle: distilled water + Tween-80): 138 % of control
- survivor count (dose: 200.0 mg/kg/injection, schedule: Q01DX009 (ip), vehicle: distilled water + Tween-80): 2 of 5 (2×)

SMILES: CCCCc1ccc(N2C(N)=NC(N)=NC2(C)C)cc1
- survivor count (dose: 25.0 mg/kg/injection, schedule: Q01DX005 (ip), vehicle: Klucel (hydroxypropylcellulose) (HPC)): 3 of 6
- survivor count [9]: 0 of 6 and 1 of 6
- survivor count [10]: 0 of 6 (2×)
- survivor count [8]: 0 of 6 (2×)

SMILES: COc1ccccc1N=NNc1ccc(S(=O)(=O)NC(C)=O)cc1
- survivor count [8]: 5 of 5

SMILES: CCN(CC)C(=O)c1c(C(=O)OC)c(C)n(NC(=O)c2cccc(C)c2)c1C
- survivor count [6]: 6 of 6

SMILES: C[n+]1c(-c2ccc(/C=N/NC(=O)c3cc(O)c(C(=O)N/N=C/c4ccc(-c5cn6ccccc6[n+]5C)cc4)cc3O)cc2)cn2ccccc21
- survivor count [6]: 1 of 6

SMILES: N=c1ccn2c(n1)OC1C(O)C(CO)OC12 (centres undefined)
- T/C (dose: 37.5 mg/kg/injection, schedule: Q01DX009 (ip), vehicle: saline): 145 % of control
- T/C (dose: 80.0 mg/kg/injection, schedule: Q01DX005 (ip), vehicle: saline): 141 % of control
- T/C (dose: 80.0 mg/kg/injection, schedule: Q01DX005 (iv), vehicle: saline): 141 % of control

SMILES: C/C(=N\N=C(/[Se])N1CCCCC1C)c1ccccn1 (centres undefined)
- survivor count (dose: 50.0 mg/kg/injection, schedule: Q04DX003 (ip), vehicle: Klucel (hydroxypropylcellulose) (HPC)): 6 of 6
- survivor count (dose: 100.0 mg/kg/injection, schedule: Q04DX003 (ip), vehicle: Klucel (hydroxypropylcellulose) (HPC)): 6 of 6
- survivor count (dose: 200.0 mg/kg/injection, schedule: Q04DX003 (ip), vehicle: Klucel (hydroxypropylcellulose) (HPC)): 5 of 6
- survivor count (dose: 400.0 mg/kg/injection, schedule: Q04DX003 (ip), vehicle: Klucel (hydroxypropylcellulose) (HPC)): 3 of 6

SMILES: CN(C)CCO/N=C1/CC[C@H]2[C@@H]3CC[C@H]4C[C@H](O)CC[C@]4(C)[C@H]3CC[C@]12C
- survivor count [9]: 2 of 6
- survivor count [10]: 0 of 6
- survivor count [8]: 0 of 6

SMILES: CCN(CC)Cc1cc(Nc2cc(Cl)c3ccc(N(C)C)cc3n2)ccc1O
- survivor count (dose: 100.0 mg/kg/injection, schedule: Q01DX009 (ip), vehicle: saline): 5 of 6
- survivor count (dose: 200.0 mg/kg/injection, schedule: Q01DX009 (ip), vehicle: saline): 1 of 6

SMILES: Clc1ccc2nsnc2c1
- survivor count (dose: 25.0 mg/kg/injection, schedule: Q01DX009 (ip), vehicle: saline with Tween-80): 4 of 6
- survivor count (dose: 400.0 mg/kg/injection, schedule: Q01DX009 (ip), vehicle: Klucel (hydroxypropylcellulose) (HPC)): 2 of 6

SMILES: Clc1ccc(COCc2ccccc2Cn2ccnc2)cc1
- survivor count [6]: 1 of 6

SMILES: CCCCN(CCCC)CC(O)c1cccc2cc(Cl)ccc12 (centres undefined)
- survivor count [11]: 3 of 5

SMILES: CC(=O)OC1CCC2(C)CCC3C(OC(=O)C3(C)[Se]c3ccccc3)C2C1C (centres undefined)
- survivor count (dose: 200.0 mg/kg/injection, schedule: Q04DX002 (ip), vehicle: saline with Tween-80): 6 of 6
- survivor count (dose: 400.0 mg/kg/injection, schedule: Q04DX002 (ip), vehicle: saline with Tween-80): 6 of 6

SMILES: CCOC(=O)c1cc(/C=C/c2cccc(Cl)c2)on1
- survivor count [4]: 6 of 6
- survivor count [5]: 6 of 6

SMILES: C#CC(C)(CC(C)C)OCCN(CC)CC (centres undefined)
- survivor count [1]: 3 of 6
- survivor count [2]: 1 of 6
- survivor count [11]: 0 of 6

SMILES: O=C(NC1CC(c2ccccc2)(c2ccccc2)OC1=O)c1ccccc1 (centres undefined)
- survivor count (dose: 200.0 mg/kg/injection, schedule: Q01DX009 (ip), vehicle: saline with Tween-80): 5 of 6

SMILES: CCCN1C=C(C(=O)OCC)C(N)=C(C#N)/C1=C\C=C(/C#N)C(=O)OCC
- survivor count (dose: 25.0 mg/kg/injection, schedule: Q01DX001 (ip), vehicle: Klucel (hydroxypropylcellulose) (HPC)): 6 of 6
- survivor count (dose: 100.0 mg/kg/injection, schedule: Q01DX001 (ip), vehicle: Klucel (hydroxypropylcellulose) (HPC)): 6 of 6
- survivor count [7]: 6 of 6
- survivor count (dose: 400.0 mg/kg/injection, schedule: Q01DX001 (ip), vehicle: Klucel (hydroxypropylcellulose) (HPC)): 5 of 6

SMILES: CC1=C(C(=O)NCc2ccccc2)C(c2cccc([N+](=O)[O-])c2)C(C(=O)NCc2ccccc2)=C(C)N1
- survivor count (dose: 60.0 mg/kg/injection, schedule: Q01DX005 (ip), vehicle: Klucel (hydroxypropylcellulose) (HPC)): 6 of 6
- survivor count (dose: 120.0 mg/kg/injection, schedule: Q01DX005 (ip), vehicle: Klucel (hydroxypropylcellulose) (HPC)): 6 of 6
- survivor count (dose: 240.0 mg/kg/injection, schedule: Q01DX005 (ip), vehicle: Klucel (hydroxypropylcellulose) (HPC)): 6 of 6

SMILES: CCCC(NC(=O)CNC(=O)OCc1ccccc1)C(=O)O (centres undefined)
- survivor count [8]: 2 of 6

SMILES: COc1cccc2c1C(=O)c1c(O)c3c(c(O)c1C2=O)CC(NO)CC3OC1CC(NC(=O)C(F)(F)F)C(O)C(C)O1 (centres undefined)
- T/C (dose: 12.5 mg/kg/injection, schedule: Q01DX009 (ip), vehicle: other): 128 % of control

SMILES: S=c1n(-c2ccc(Cl)cc2)c2nc3ccccc3nc(/c2=N\Nc2ccc(Br)cc2)n1-c1ccccn1
- survivor count [2]: 5 of 6
- survivor count [11]: 0 of 6

SMILES: [N-]=[N+]=Nc1ccccc1C(=O)NCCNC(=O)c1ccccc1N=[N+]=[N-]
- survivor count (dose: 25.0 mg/kg/injection, schedule: Q01DX005 (ip), vehicle: saline with Tween-80): 6 of 6
- survivor count [1]: 6 of 6
- survivor count [2]: 6 of 6

SMILES: CCOc1ccc(C(C)c2cc3c(cc2OCC)OCO3)cc1C (centres undefined)
- T/C [10]: 129 % of control
- T/C (dose: 200.0 mg/kg/injection, schedule: Q01DX005 (ip), vehicle: Klucel (hydroxypropylcellulose) (HPC), evaluated on day 20): 136 % of control
- T/C (dose: 200.0 mg/kg/injection, schedule: Q01DX005 (ip), vehicle: Klucel (hydroxypropylcellulose) (HPC), evaluated on day 30): 146 % of control
- T/C [12]: 131 % of control
- survivor count [12]: 6 of 6

SMILES: COc1cc(C(C)c2cc3c(cc2O)OCO3)cc(OC)c1OC (centres undefined)
- T/C [6]: 127 % of control

From PubChem BioAssay AID330 (DTP/NCI, 2004)
